No constants are given. Whether binding was seen depends on the method and setting. Binding calls can cover weak binding; strength is not graded here. For some of these results: In cells and extracts the contact can be indirect.
Legend:
[1] = target: GST-tagged SEC13A (Arabidopsis (Col-0)) (UniProt O64740); assay: pull-down; GST fusions held on glutathione resin / anti-GST beads, His-tagged protein detected with anti-His; roughly equal amounts incubated at 16 °C for 14 h; 20 mM Tris-HCl pH 7.5, 150 mM NaCl, 0.1% Triton X-100, 10% glycerol
[2] = target: GST-tagged SEC13B (Arabidopsis (Col-0)) (UniProt Q9SRI1); assay: as above
[3] = target: SEC13A fused with the N-terminal half of luciferase (Arabidopsis (Col-0)) (UniProt O64740); assay: split reporter; luciferase complementary imaging (LCI) in N. benthamiana leaves; nLUC and cLUC fusions co-infiltrated, signal read 48 h after infiltration
[4] = target: SEC13B fused with the N-terminal half of luciferase (Arabidopsis (Col-0)) (UniProt Q9SRI1); assay: as above
[5] = target: SEC13A (yeast two-hybrid bait) (Arabidopsis (Col-0)) (UniProt O64740); assay: two-hybrid; point-to-point; pGBKT7 and pGADT7-Rec constructs co-transformed into yeast AH109; growth on medium lacking Trp, Leu, His and Ade (-WLHA), 3 days at 30 °C
[6] = target: SEC13B (yeast two-hybrid bait) (Arabidopsis (Col-0)) (UniProt Q9SRI1); assay: as above

By UniProt entry, the sequences of proteins in these tests, tags left out. Where a name states a change or a piece, a line headed by the entry shows the natural chain unless it says otherwise.
UniProt O64740: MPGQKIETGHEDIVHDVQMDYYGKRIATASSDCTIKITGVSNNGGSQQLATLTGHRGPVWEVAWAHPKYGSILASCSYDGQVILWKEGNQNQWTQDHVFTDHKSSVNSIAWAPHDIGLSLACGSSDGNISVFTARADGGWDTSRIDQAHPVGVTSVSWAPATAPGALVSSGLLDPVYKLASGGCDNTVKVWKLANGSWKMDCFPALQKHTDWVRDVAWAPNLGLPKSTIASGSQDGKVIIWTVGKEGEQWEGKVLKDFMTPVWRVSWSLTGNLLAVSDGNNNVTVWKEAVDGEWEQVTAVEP
UniProt Q9SRI1: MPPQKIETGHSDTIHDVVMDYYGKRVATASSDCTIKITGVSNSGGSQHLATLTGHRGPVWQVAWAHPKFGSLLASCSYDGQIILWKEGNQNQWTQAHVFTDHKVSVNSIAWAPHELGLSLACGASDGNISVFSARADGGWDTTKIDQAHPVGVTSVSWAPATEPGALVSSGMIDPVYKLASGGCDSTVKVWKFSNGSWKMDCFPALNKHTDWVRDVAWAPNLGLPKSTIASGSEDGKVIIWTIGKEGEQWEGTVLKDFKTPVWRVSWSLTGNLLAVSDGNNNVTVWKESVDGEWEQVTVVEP
UniProt Q9C5G0: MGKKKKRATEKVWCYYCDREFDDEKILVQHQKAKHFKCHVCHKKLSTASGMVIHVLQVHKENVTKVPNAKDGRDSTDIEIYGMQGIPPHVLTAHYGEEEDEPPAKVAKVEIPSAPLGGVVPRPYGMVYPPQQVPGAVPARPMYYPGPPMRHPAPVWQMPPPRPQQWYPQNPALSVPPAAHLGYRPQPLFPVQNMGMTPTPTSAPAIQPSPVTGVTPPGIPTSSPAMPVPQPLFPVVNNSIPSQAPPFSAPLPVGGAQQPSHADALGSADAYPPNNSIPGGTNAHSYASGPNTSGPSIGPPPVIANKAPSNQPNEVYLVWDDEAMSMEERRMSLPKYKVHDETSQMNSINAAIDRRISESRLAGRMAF

| Substance | binding [1] | binding [2] | binding [3] | binding [4] | also measured |
| --- | --- | --- | --- | --- | --- |
| SUF4^Pro, C-terminal fragment (amino acids 101 to 367) of SUF4 (pull-down) (from UniProt Q9C5G0 101-367) (domain or fragment) | binds | binds | – | – | – |
| SUF4^Pro (amino acids 101 to 367 of SUF4) fused with the C-terminal half of luciferase (from UniProt Q9C5G0 101-367) (domain or fragment) | – | – | binds | binds | – |
| SUF4 fused with the C-terminal half of luciferase (from UniProt Q9C5G0 1-367) | – | – | binds | binds | – |
| His-tagged SUF4 (from UniProt Q9C5G0 1-367) | binds | binds | – | – | – |
| SUF4^Pro, C-terminal fragment (amino acids 101 to 367) of SUF4 (yeast two-hybrid) (from UniProt Q9C5G0 101-367) (domain or fragment) | – | – | – | – | binding [5]: binds; binding [6]: binds |

Source: paper PMC10744139
